Reference: patent US6838019B2, “Phosphorescent material and electroluminescent device using thereof” (Ritek Corporation, priority 2001, dated 2005)

Assay: Relative quantum efficiency test
Type: physicochemical
Details: dichloromethane solution, optical density 0.5, relative to standard Tb(TMHD)3
Experimental: The quantum efficiencies of Tb(TMHD)3—DMSO, Tb(TMHD)3—MPSO, Tb(TMHD)3—DPSO, Tb(TMHD)3—OPNP are compared with that of the standard Tb(TMHD)3.
An appropriate amount of Tb(TMHD)3—DMSO, Tb(TMHD)3—MPSO, TB(TNHD)3—DPSO, Tb(TMHD)3—OPNP is dissolved in a dichloromethane solvent to a form a diluted solution having an optical density of 0.5 for the UV-VIS absorption (Instrument used: Hitachi UV-Vis spectrophotometer 3010). The fluorescence of the various samples is compared with that of the standard (Instrument used: Hitachi fluorescence spectrophotometer F-4500) and the results are presented in terms relative quantum efficiencies calculated using the relative quantum efficiency formula: (Φs/Φst)=(As/Ast)×(ODst/ODs)×(Qst/Qs)×100% • Φs: fluorescence quantum efficiency of the sample • Φst: fluorescence quantum efficiency of the standard • As: area under the fluorescence spectrum line of the sample • Ast: area under the fluorescence spectrum line of the standard • ODs: degree of absorption of the sample under the maximum wavelength λmax of the UV-VIS spectrum • ODst: degree of absorption of the standard under the maximum wavelength λmax of the UV-VIS spectrum • Qs: number of photons provided to the sample by the fluorescence exciting light source • Qst: number of photons provided to the standard by the fluorescence exciting light source • Under a same intensity of the light source, Qst/Qs is equal to 1 Therefore, under the same intensity of the light source and by obtaining the integrated area and the OD value of the UV-VIS spectrum, the relative quantum efficiency is determined. Table 2 summarizes the relative quantum efficiencies and the maximum wavelengths λ max of the UV-VIS spectrum for the different samples.

Row | Compound | Relative Quantum Efficiency
1 | Tris(2,2,6,6-tetramethyl-3,5-heptanedionato) Terbium (III) diphenyl phosphonimide tris-phenyl phosphorane [Tb(TMHD)3-OPNP, reference compound] | 0.67%
2 | CC(C)(C)C(=O)[CH-]C(=O)C(C)(C)C.CC(C)(C)C(=O)[CH-]C(=O)C(C)(C)C.CC(C)(C)C(=O)[CH-]C(=O)C(C)(C)C.[Tb+3] [Tb(TMHD)3, tris(2,2,6,6-tetramethyl-3,5-heptanedionato) Terbium(III), reference compound] | 1.00%
3 | CC(C)(C)C(=O)C=C([O-])C(C)(C)C.CC(C)(C)C(=O)C=C([O-])C(C)(C)C.CC(C)(C)C(=O)C=C([O-])C(C)(C)C.CS(=O)c1ccccc1.[Tb+3] [Tb(TMHD)3-MPSO, tri(2,2,6,6-tetramethyl-3,5-heptanedionate) Tb(III) methyl phenyl sulfoxide] | 0.93%
4 | CC(C)(C)C(=O)C=C([O-])C(C)(C)C.CC(C)(C)C(=O)C=C([O-])C(C)(C)C.CC(C)(C)C(=O)C=C([O-])C(C)(C)C.CS(C)=O.[Tb+3] [Tb(TMHD)3-DMSO, tri(2,2,6,6-tetramethyl-3,5-heptanedionate) Tb(III) dimethyl sulfoxide] | 0.74%
5 | CC(C)(C)C(=O)C=C([O-])C(C)(C)C.CC(C)(C)C(=O)C=C([O-])C(C)(C)C.CC(C)(C)C(=O)C=C([O-])C(C)(C)C.O=S(c1ccccc1)c1ccccc1.[Tb+3] [Tb(TMHD)3-DPSO, tri(2,2,6,6-tetramethyl-3,5-heptanedionate) Tb(III) diphenyl sulfoxide] | 1.21%
